# According to PubChem BioAssay (EPA / NIEHS):
# Chains of the proteins cited; added tags and fusions are not shown. Lines headed by an entry give the natural chain unless they say otherwise; changes in a name come on top.
# UniProt P16581: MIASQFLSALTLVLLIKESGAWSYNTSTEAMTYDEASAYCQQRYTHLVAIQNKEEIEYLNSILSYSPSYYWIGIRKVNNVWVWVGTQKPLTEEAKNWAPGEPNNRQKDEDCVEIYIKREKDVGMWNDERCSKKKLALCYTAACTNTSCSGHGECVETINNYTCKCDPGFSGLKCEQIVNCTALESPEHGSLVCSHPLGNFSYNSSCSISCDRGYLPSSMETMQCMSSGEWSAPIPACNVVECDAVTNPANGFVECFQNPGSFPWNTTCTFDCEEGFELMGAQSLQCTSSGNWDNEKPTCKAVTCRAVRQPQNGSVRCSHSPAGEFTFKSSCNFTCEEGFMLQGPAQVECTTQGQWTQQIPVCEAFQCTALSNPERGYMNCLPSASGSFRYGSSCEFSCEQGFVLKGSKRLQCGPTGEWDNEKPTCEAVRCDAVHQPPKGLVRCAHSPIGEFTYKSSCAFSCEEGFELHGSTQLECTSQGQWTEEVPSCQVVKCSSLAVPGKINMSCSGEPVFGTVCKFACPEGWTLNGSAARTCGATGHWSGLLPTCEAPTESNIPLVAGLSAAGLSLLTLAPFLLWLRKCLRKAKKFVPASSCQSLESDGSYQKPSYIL
# UniProt P10827: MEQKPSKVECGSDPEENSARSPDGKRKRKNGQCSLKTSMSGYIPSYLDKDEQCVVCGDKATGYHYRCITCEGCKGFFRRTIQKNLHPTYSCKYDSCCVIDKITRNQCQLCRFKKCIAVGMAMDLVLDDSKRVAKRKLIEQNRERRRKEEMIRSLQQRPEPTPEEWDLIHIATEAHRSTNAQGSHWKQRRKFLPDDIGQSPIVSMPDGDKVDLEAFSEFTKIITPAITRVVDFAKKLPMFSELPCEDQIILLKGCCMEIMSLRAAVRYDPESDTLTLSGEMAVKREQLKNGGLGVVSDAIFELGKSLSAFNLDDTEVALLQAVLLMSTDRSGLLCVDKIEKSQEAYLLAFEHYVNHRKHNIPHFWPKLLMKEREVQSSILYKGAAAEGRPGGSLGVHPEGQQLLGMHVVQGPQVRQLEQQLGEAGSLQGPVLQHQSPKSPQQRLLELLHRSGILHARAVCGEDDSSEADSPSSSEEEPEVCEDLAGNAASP
# UniProt P49841: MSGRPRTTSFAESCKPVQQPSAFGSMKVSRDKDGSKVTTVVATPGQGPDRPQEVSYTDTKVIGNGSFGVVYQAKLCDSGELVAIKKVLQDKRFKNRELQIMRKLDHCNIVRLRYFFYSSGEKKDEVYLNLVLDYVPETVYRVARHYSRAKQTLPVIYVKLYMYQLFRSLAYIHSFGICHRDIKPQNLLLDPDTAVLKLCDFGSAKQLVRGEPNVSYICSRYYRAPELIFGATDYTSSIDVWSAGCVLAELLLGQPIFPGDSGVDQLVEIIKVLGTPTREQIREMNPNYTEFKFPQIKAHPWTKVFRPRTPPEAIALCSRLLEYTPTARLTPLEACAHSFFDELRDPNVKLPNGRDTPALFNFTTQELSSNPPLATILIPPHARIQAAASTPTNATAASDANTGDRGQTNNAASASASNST
# UniProt Q5TCH4: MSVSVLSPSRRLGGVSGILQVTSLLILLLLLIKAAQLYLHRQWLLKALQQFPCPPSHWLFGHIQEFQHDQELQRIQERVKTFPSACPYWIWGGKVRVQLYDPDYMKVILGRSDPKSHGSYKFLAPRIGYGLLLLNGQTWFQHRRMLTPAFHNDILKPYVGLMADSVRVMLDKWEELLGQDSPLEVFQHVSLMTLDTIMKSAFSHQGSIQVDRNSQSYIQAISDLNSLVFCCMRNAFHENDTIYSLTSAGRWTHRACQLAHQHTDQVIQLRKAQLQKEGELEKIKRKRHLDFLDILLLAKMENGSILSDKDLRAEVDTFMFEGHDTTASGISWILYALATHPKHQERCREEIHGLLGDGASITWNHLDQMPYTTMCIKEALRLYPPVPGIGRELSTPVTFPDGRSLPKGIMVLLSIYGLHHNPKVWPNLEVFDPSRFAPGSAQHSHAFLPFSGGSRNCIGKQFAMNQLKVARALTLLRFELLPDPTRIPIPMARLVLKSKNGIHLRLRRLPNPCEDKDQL
# UniProt P22680: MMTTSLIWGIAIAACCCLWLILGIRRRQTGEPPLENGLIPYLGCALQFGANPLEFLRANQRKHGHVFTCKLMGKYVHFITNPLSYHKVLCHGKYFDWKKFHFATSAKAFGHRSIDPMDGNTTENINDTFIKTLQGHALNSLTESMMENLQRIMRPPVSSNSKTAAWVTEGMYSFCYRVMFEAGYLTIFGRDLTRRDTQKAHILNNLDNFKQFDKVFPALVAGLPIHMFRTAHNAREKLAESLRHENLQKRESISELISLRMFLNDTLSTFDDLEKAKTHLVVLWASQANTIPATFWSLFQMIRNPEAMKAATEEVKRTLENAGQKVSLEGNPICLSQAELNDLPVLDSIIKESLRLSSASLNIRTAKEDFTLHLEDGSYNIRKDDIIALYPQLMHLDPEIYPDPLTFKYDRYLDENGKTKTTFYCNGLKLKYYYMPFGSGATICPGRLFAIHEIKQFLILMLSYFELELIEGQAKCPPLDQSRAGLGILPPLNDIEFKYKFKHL
# For part of these data: Shown are results outside the selection of hits, which stands elsewhere. Results filed as inconclusive are left out. This is a selection; strong and weak results do not stand in their true shares. Calls of active or inactive are those of the source. How the source made its calls, unless noted: active means hit-call score of the fitted dose curve at least 0.9, where 1 is the maximum; inactive means score below 0.9.
# Assays:
# [1] = read-out: E-selectin (Homo sapiens) (UniProt P16581); experiment: BSK_3C_Eselectin: BioMAP Diversity Plus: 3C Assay for Eselectin Biomarker Activity (AID 2283015); conditions: actives raise or lower the signal; primary human endothelial cells (HUVEC)
# How it was run: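 HUVEC, 3C stimulation; compound exposure 24 h; E-selectin by ELISA; gain- or loss-of-signal fitted bidirectionally vs DMSO baseline.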
# [2] = read-out: Pselectin, SELP (gene 6403); experiment: BSK_4H_Pselectin: BioMAP Diversity Plus: 4H Assay for Pselectin Biomarker Activity (AID 2283026); conditions: actives raise or lower the signal; primary human endothelial cells (HUVEC)
# How it was run: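 Primary human umbilical vein endothelial cells were treated 24 h, and cell-surface P-selectin was then quantified by ELISA. Bidirectional fit versus DMSO; cytotoxicity checked in parallel cultures by SRB total-protein staining.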
# [3] = BSK_BE3C_SRB: Viability Assessment in the BioMAP Diversity Plus: BE3C Assay (AID 2283028); conditions: primary human bronchial epithelial cells
# How it was run: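 Primary human bronchial epithelium; chemical dosing, 24 h; 10% TCA fix, 0.1% SRB stain, A560; bidirectional fit vs DMSO baseline.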
# [4] = read-out: Interleukin-8 (IL8), CXCL8 (gene 3576); experiment: BSK_hDFCGF_IL8: BioMAP Diversity Plus: hDFCGF Assay for Interleukin-8 (IL8) Biomarker Activity (AID 2283058); conditions: actives raise or lower the signal; primary human foreskin fibroblasts
# How it was run: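 ELISA read-out of IL-8 from primary human foreskin fibroblast cultures taken 24 h after dosing; values are bidirectional fits relative to DMSO vehicle.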
# [5] = read-out: CD38, CD38 (gene 952); experiment: BSK_SAg_CD38: BioMAP Diversity Plus: SAg Assay for CD38 Biomarker Activity (AID 2283087); conditions: actives raise or lower the signal; primary human HUVEC with PBMC
# How it was run: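 Human HUVEC plus PBMC co-culture stimulated with superantigen; CD38 measured by ELISA 24 h after chemical dosing. Fluorescence read-out, bidirectional fit against DMSO; cytotoxicity tracked in parallel by SRB and Alamar Blue.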
# [6] = read-out: Interleukin-8 (IL8), CXCL8 (gene 3576); experiment: BSK_MyoF_IL8: BioMAP Diversity Plus: MyoF Assay for Interleukin-8 (IL8) Biomarker Activity (AID 2284261); conditions: primary human lung fibroblasts
# How it was run: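 Lung fibroblasts (human primary) → chemical exposure → 24 h → IL-8 measured by ELISA. Signal increase scored versus DMSO control.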
# [7] = BSK_MyoF_SRB: Viability Assessment in the BioMAP Diversity Plus: MyoF Assay (AID 2284267); conditions: primary human lung fibroblasts;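 further: total protein by SRB absorbance in parallel cultures as cytotoxicity measure; cells assessed 24 h after compound addition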
# How it was run: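 Human lung fibroblasts, 24 h after chemical dosing; total protein measured by 0.1% sulforhodamine B staining after 10% TCA fixation, read at 560 nm, fitted relative to DMSO baseline.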
# [8] = molecular target: human Thyroid Receptor alpha (THRa1), THRA (gene 7067) (UniProt P10827); experiment: ATG_THRa1_TRANS: Attagene TRANS-FACTORIAL HepG2 Assay for human Thyroid Receptor alpha (THRa1) (AID 2283014; active means hit-call score of the fitted dose curve at least 0.9, where 1 is the maximum)
# How it was run: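 Transient HepG2 transfection, NR-Gal4 chimera driving GAL4-UAS reporters; 24 h compound exposure; total RNA, oligo(dT) RT, PCR, fluorescent primer extension, capillary electrophoresis. Upward direction vs DMSO control.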
# [9] = read-out: Monocyte Chemoattractant Protein-1 (MCP1), CCL2 (gene 6347); experiment: BSK_3C_MCP1: BioMAP Diversity Plus: 3C Assay for Monocyte Chemoattractant Protein-1 (MCP1) Biomarker Activity (AID 2283017); conditions: actives raise or lower the signal; primary human endothelial cells (HUVEC)
# How it was run: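 HUVEC, 3C system; 24 h chemical exposure; MCP-1 by ELISA; bidirectional curve fit vs DMSO baseline.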
# [10] = BSK_3C_SRB: Viability Assessment in the BioMAP Diversity Plus: 3C Assay (AID 2283023); conditions: primary human endothelial cells (HUVEC);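 further: cells read 24 h after compound dosing; fitted both ways against DMSO so a hit may be signal rise or drop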
# How it was run: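 HUVEC, 24 h post-dose; 10% TCA fix, 0.1% SRB stain, A560 nm. Bidirectional curve fit vs DMSO negative control.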
# [11] = read-out: Monocyte Chemoattractant Protein-1 (MCP1), CCL2 (gene 6347); experiment: BSK_CASM3C_MCP1: BioMAP Diversity Plus: CASM3C Assay for Monocyte Chemoattractant Protein-1 (MCP1) Biomarker Activity (AID 2283046); conditions: actives raise or lower the signal; primary human coronary artery smooth muscle cells;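 further: MCP-1 level quantified by ELISA 24 h after dosing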
# [12] = read-out: serum amyloid A (SAA), SAA1 (gene 6288); experiment: BSK_CASM3C_SAA: BioMAP Diversity Plus: CASM3C Assay for serum amyloid A (SAA) Biomarker Activity (AID 2283049); conditions: actives raise or lower the signal; primary human coronary artery smooth muscle cells;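 further: SAA protein level quantified by ELISA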
# [13] = BSK_LPS_SRB: Viability Assessment in the BioMAP Diversity Plus: LPS Assay (AID 2283079); conditions: primary human HUVEC with PBMC;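 further: total protein by sulforhodamine B absorbance as a cytotoxicity measure; measured one day after compound addition; fitted in both directions against DMSO so loss or gain of signal counts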
# How it was run: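 HUVEC + PBMC co-culture, LPS-stimulated; compound 24 h. 10% TCA fix, 0.1% SRB stain, A560. Bidirectional fit vs DMSO.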
# [14] = molecular target: Glycogen synthase kinase-3 beta (Homo sapiens) (UniProt P49841); experiment: NVS_ENZ_hGSK3b: NovaScreen (NVS) Enzymatic Assay for human Glycogen Synthase Kinase-3 beta (GSK3b) (AID 2283165; active means hit-call score of the fitted dose curve at least 0.9, where 1 is the maximum)
# How it was run: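 Recombinant enzyme with specific fluorescent substrate, 1 h, product separated by electrophoretic mobility shift. Primary duplicate screen at 25 uM; actives (e.g. 30% inhibition) followed in singleton concentration-response to 50 uM. Signal loss fitted versus DMSO.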
# [15] = read-out: catalase (CAT), CAT (gene 847); experiment: LTEA_HepaRG_CAT: Life Technologies and Expression Analysis (LTEA) Assay for catalase (CAT) using HepaRG (AID 2283452); conditions: actives raise or lower the signal; mRNA level, 48 h;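 further: TaqMan qRT-PCR signal normalized to ACTB GAPDH and POLR2A housekeeping genes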
# How it was run: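 Expression of CAT was quantified by TaqMan qRT-PCR with ACTB/GAPDH/POLR2A normalization after 48 h chemical exposure of HepaRG. Eight-point half-log series, top 100 uM, in 0.5% DMSO; gain or loss fitted against vehicle.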
# [16] = read-out: ABC Transporter (ABCB11), ABCB11 (gene 8647); experiment: LTEA_HepaRG_ABCB11: Life Technologies and Expression Analysis (LTEA) Assay for ABC Transporter (ABCB11) using HepaRG (AID 2283463); conditions: actives raise or lower the signal; mRNA level, 48 h
# How it was run: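 ABCB11 transcript levels are read by Fluidigm TaqMan qRT-PCR after 48 h chemical treatment of human HepaRG cells. Concentrations span 100 uM downward in half-log steps with 0.5% DMSO; gain or loss is fitted against DMSO controls.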
# [17] = read-out: cysteine-aspartic acid protease (CASP8), CASP8 (gene 841); experiment: LTEA_HepaRG_CASP8: Life Technologies and Expression Analysis (LTEA) Assay for cysteine-aspartic acid protease (CASP8) using HepaRG (AID 2283480); conditions: actives raise or lower the signal; mRNA level, 48 h
# How it was run: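 HepaRG, 48 h exposure, duplicate wells; 8 conc, half-log from 100 uM, 0.5% DMSO. Serum-free induction medium. CASP8 mRNA by TaqMan qRT-PCR, norm. ACTB/GAPDH/POLR2A; gain/loss fitted vs DMSO.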
# [18] = read-out: CYP2C8 (gene 1558); experiment: LTEA_HepaRG_CYP2C8: Life Technologies and Expression Analysis (LTEA) Assay for CYP2C8 using HepaRG (AID 2283483); conditions: actives raise or lower the signal; mRNA level, 48 h
# How it was run: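 CYP2C8 mRNA induction or loss, by qRT-PCR normalized to ACTB/GAPDH/POLR2A, is read in HepaRG cells after 48 h treatment. Concentrations run from 100 uM down in half-log dilutions, with 0.5% DMSO as vehicle and baseline.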
# [19] = read-out: CYP4A11 (gene 1579); experiment: LTEA_HepaRG_CYP4A11: Life Technologies and Expression Analysis (LTEA) Assay for CYP4A11 using HepaRG (AID 2283486); conditions: actives raise or lower the signal; mRNA level, 48 h
# How it was run: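 CYP4A11 transcript levels were quantified by TaqMan qRT-PCR after HepaRG human liver cells were treated for 48 hours with test chemicals (top 100 uM, half-log dilutions, 0.5% DMSO). Gain or loss of signal was fitted relative to DMSO.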
# [20] = read-out: Cytochrome P450 4A22 (Homo sapiens) (UniProt Q5TCH4); experiment: LTEA_HepaRG_CYP4A22: Life Technologies and Expression Analysis (LTEA) Assay for Cytochrome P450 4A22 (CYP4A22) using HepaRG (AID 2283495); conditions: actives raise or lower the signal; mRNA level, 48 h
# How it was run: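 HepaRG, 48 h post-plating -> serum-free induction medium; dosed 48 h, duplicate, 8 conc. (100 uM top, half-log), 0.5% DMSO. Readout: CYP4A22 mRNA by qRT-PCR, ACTB/GAPDH/POLR2A normalization; gain/loss fit relative to DMSO.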
# [21] = read-out: Cytochrome P450 7A1 (Homo sapiens) (UniProt P22680); experiment: LTEA_HepaRG_CYP7A1: Life Technologies and Expression Analysis (LTEA) Assay for Cytochrome P450 7A1 (CYP7A1) using HepaRG (AID 2283496); conditions: actives raise or lower the signal; mRNA level, 48 h
# How it was run: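 HepaRG cells plated 48 h, then switched to serum-free induction medium and exposed in duplicate for 48 h to 8-point half-log series from 100 uM in 0.5% DMSO. CYP7A1 mRNA by qRT-PCR (TaqMan), normalized to ACTB/GAPDH/POLR2A; bidirectional fit versus DMSO.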
# [22] = read-out: Glutathione S-Transferase (GSTA2), GSTA2 (gene 2939); experiment: LTEA_HepaRG_GSTA2: Life Technologies and Expression Analysis (LTEA) Assay for Glutathione S-Transferase (GSTA2) using HepaRG (AID 2283497); conditions: actives raise or lower the signal; mRNA level, 48 h
# How it was run: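 HepaRG, 48 h dosing, 8-pt half-log CRC from 100 uM, 0.5% DMSO vehicle, n=2; RNA → Fluidigm TaqMan qRT-PCR; GSTA2 vs ACTB/GAPDH/POLR2A; gain/loss fit vs DMSO.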
# [23] = read-out: Insulin Like Growth Factor 1 (IGF1), IGF1 (gene 3479); experiment: LTEA_HepaRG_IGF1: Life Technologies and Expression Analysis (LTEA) Assay for Insulin Like Growth Factor 1 (IGF1) using HepaRG (AID 2283506); conditions: actives raise or lower the signal; mRNA level, 48 h
# How it was run: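 Differentiated HepaRG cells in serum-free induction medium, exposed 48 h in duplicate to 8 half-log concentrations up to 100 uM in 0.5% DMSO. IGF1 mRNA by Fluidigm qRT-PCR, normalised to ACTB, GAPDH and POLR2A.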
# [24] = read-out: Protein phosphatase 2A (PPP2R4), PTPA (gene 5524); experiment: LTEA_HepaRG_PPP2R4: Life Technologies and Expression Analysis (LTEA) Assay for Protein phosphatase 2A (PPP2R4) using HepaRG (AID 2283522); conditions: actives raise or lower the signal; mRNA level, 48 h
# How it was run: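 Differentiated human HepaRG cells in serum-free induction medium were exposed 48 h to 8 concentrations (top 100 µM, half-log steps, duplicate) in 0.5% DMSO. PPP2R4 mRNA was measured by TaqMan qRT-PCR, normalised to ACTB, GAPDH and POLR2A, and fitted bidirectionally versus DMSO.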
# [25] = read-out: Phosphatase and tensin (PTEN), PTEN (gene 5728); experiment: LTEA_HepaRG_PTEN: Life Technologies and Expression Analysis (LTEA) Assay for Phosphatase and tensin (PTEN) using HepaRG (AID 2283523); conditions: actives raise or lower the signal; mRNA level, 48 h
# How it was run: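 Read-out is PTEN transcript level by multiplexed TaqMan qRT-PCR after 48 h chemical treatment of human HepaRG cultures in serum-free induction medium. Concentrations spanned 100 uM downward in half-log steps, 0.5% DMSO throughout; activity fitted in both directions against vehicle.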
# [26] = read-out: solute carrier (SLCO1B1), SLCO1B1 (gene 10599); experiment: LTEA_HepaRG_SLCO1B1: Life Technologies and Expression Analysis (LTEA) Assay for solute carrier (SLCO1B1) using HepaRG (AID 2283530); conditions: actives raise or lower the signal; mRNA level, 48 h
# How it was run: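 SLCO1B1 transcript read by qRT-PCR (Fluidigm arrays), normalized to three housekeeping genes, after 48 h chemical exposure of HepaRG cells; bidirectional concentration-response fitting versus 0.5% DMSO baseline. Eight-point half-log series, maximum 100 uM.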
# [27] = Tanguay_ZF_120hpf_NC_legacy: (Legacy) Oregon State University Tanguay Lab 120 Hour Post-fertilization zebrafish Assay for Notochord and Tail Malformation (AID 2283656; active means hit-call score of the fitted dose curve at least 0.9, where 1 is the maximum)
# How it was run: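 Dechorionated Tropical 5D wild-type zebrafish embryos, one per well from 6 hpf, statically exposed to 120 hpf at 28C in 0.64% DMSO final. Notochord distortion scored present/absent by brightfield; dead embryos excluded.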
compound,measurement,setting,value
COCc1c(C(C)C)nc(C(C)C)c(/C=C/[C@@H](O)C[C@@H](O)CC(=O)O)c1-c1ccc(F)cc1,AC50,[1],active: 1.83 µM
same,AC50,[2],active: 1.83 µM
same,outcome,[3],inactive
same,outcome,[4],inactive
same,AC50,[5],active: 1.83 µM
same,AC50,[6],active: 0.00777 µM
same,AC50,[7],active: 0.0766 µM
OCc1c[nH]c2ccccc12,outcome,[8],inactive
CCCCC(CC)COC(=O)C=Cc1ccc(OC)cc1 (configuration not stated),AC50,[9],active: 29.5 µM
CCCCCCCCCCCCOS(=O)(=O)O,outcome,[10],inactive
same,outcome,[11],inactive
same,outcome,[12],inactive
same,outcome,[13],inactive
same,AC50,[14],active: 35.5 µM
same,AC50,[15],active: 87.7 µM
same,AC50,[16],active: 93.8 µM
same,outcome,[17],inactive
same,AC50,[18],active: 85.7 µM
same,AC50,[19],active: 91.9 µM
same,AC50,[20],active: 89.6 µM
same,AC50,[21],active: 94.1 µM
same,AC50,[22],active: 76.5 µM
same,outcome,[23],inactive
same,outcome,[24],inactive
same,outcome,[25],inactive
same,AC50,[26],active: 80.4 µM
same,outcome,[27],inactive
